Laboratory results from PubChem BioAssay AID743266 (National Center for Advancing Translational Sciences (NCATS), 2014).
About 310 (0.076%) of roughly 410,000 compounds were called active. Inconclusive means that the source gave no clear call. Such entries were picked first, then a sample of the others. Calls come from the whole dose curve; as a rule, active = well fitted activation curve with a large enough effect; inconclusive = small, poorly fitted or top-dose-only effect, or another doubt; inactive = no such curve, though single readings can be large or run the other way. Potencies beside an inconclusive call are fits to weak or partial responses and may not hold up.

The chains behind the UniProt entries cited, without tags or fusion partners. Where a name states a change or a piece, a line headed by the entry shows the natural chain unless it says otherwise.
UniProt Q03431: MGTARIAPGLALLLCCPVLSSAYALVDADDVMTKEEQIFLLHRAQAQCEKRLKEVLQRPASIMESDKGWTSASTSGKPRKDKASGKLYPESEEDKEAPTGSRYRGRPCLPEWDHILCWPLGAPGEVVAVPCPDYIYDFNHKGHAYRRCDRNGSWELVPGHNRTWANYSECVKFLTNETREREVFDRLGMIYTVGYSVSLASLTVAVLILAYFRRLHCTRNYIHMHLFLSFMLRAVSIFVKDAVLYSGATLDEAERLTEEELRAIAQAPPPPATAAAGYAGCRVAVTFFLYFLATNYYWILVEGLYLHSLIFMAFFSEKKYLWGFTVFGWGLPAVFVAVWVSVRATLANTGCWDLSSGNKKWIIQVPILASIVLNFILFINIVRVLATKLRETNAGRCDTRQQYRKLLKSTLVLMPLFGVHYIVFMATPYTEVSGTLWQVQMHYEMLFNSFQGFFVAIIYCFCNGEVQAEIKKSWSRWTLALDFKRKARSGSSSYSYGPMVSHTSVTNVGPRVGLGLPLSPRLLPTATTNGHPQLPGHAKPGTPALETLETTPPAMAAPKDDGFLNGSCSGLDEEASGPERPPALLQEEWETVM

biological target: Parathyroid hormone/parathyroid hormone-related peptide receptor (Homo sapiens) (UniProt Q03431); assay: qHTS for PTHR1 Agonists: Primary Screen; conditions: HEK293 GP2 PTHR1 cells, GloSensor cAMP luminescence, 1 h; activation: at 115 µM (top of the series) unless noted; series mostly up to 115 µM; note: nearly all actives have a fitted effect of over 55% in size
Method in brief: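 HEK-293-derived GP2 cells expressing PTHR1 and a GloSensor cAMP reporter, 3,000/well, plated overnight, given luciferin plus IBMX (each 0.5 mM as added) for 1 h at 37 °C, then compound for 1 h at 37 °C. Luminescence was read after 15 min at room temperature.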
Potency is the fitted concentration of half-maximal effect.

SMILES | activation | Potency | outcome
COC(=O)C1=C(C)N(Cc2ccc(C)cc2)C(=O)/C1=C\c1cc(OC)c(OC)c(OC)c1 | inactive: -25.8% |  | 
C[n+]1c(-c2ccccc2)cc2c(=Cc3ccccc3)c3ccccc3n21 | inactive: -41.3% |  | 
CC(C)NC(=O)C1(C#N)C=C1c1ccccc1 (centres undefined) | inactive: -22.7% |  | 
COc1ccc(C(=O)NCC(c2ccc3c(c2)OCO3)N2CCN(C)CC2)cc1OC (centres undefined) |  | inconclusive: 56.2 µM [activator, partial curve, poor fit] | 
Cc1cccc(N(C(=O)c2ccc(Cl)cc2)C2CS(=O)(=O)CC2OC(=O)c2ccc(Cl)cc2)c1 (centres undefined) |  | inconclusive: 126 µM [activator, single point] | 
CC(=O)c1cc(-c2ccc(F)cc2)n(CCC(=O)NC2CCCCC2)c1C |  | inconclusive: 3.98 µM [activator, full curve, poor fit] | 
COc1ccc(-n2c(=O)c3c4c(sc3n(CC(=O)NCC3CCCO3)c2=O)CCCC4)c(OC)c1 (centres undefined) | inconclusive: -37.5% [activator] |  | 
CCCc1nc(SCC(=O)N2CCCc3ccccc32)c2c(=O)n(C)c(=O)n(C)c2n1 |  |  | inactive
CCSc1nc2sc3c(c2c(=O)n1-c1ccc(C)cc1)CCCC3 |  | inconclusive: 100 µM [activator, single point] | 
COc1ccc(CNC(=O)CNC(=O)c2ccc(Br)o2)cc1OC |  |  | inactive
COc1ccc(Br)c(Cn2c(C)c(C(=O)NCc3cccc([N+](=O)[O-])c3)sc2=O)c1 |  |  | inactive
Cc1n[nH]c(=S)n(/N=C/c2cccs2)c1=O |  | inconclusive: 7.94 µM [activator, full curve, poor fit] | 
O=C(COc1ccc(-c2nnco2)cc1)NC1CCS(=O)(=O)C1 (centres undefined) |  | inconclusive: 44.7 µM [activator, partial curve, poor fit] | 
COc1cc(/C=C2\CC/C(=C\c3cc(OC)c(OC)c(OC)c3)C2=O)cc(OC)c1OC | inactive: -8.22% |  | 
Cc1ccc(-c2cn3c(n2)sc2cc(C(=O)NC4CCCCC4)ccc23)cc1 | inactive: 8.32% |  | 
O=C(Nc1ccc(Cl)c(S(=O)(=O)N2CCOCC2)c1)c1ccc2c(c1)OCO2 | inactive: -46.7% |  | 
CCOc1ccccc1NC(=O)c1cn(C2CCCCC2)c(=O)c2c1c1ccccc1n2C |  | inconclusive: 100 µM [activator, partial curve, poor fit] | 
O=C(CSc1ccc(Cl)cc1)Nc1ccc(N2CCN(C(=O)c3ccc(Cl)cc3)CC2)cc1 |  | inconclusive: 2.82 µM [activator, partial curve] | 
COc1ccc(Nc2nc(NC(C)(C)C)nc(N3CCCC3)n2)c(OC)c1 |  | inconclusive: 20 µM [activator, partial curve, poor fit] | 

Taken from above.
activation, COc1ccc(-n2c(=O)c3c4c(sc3n(CC(=O)NCC3CCCO3)c2=O)CCCC4)c(OC)c1 (centres undefined) is entered as inconclusive: -37.5% [activator]
Potency, Cc1cccc(N(C(=O)c2ccc(Cl)cc2)C2CS(=O)(=O)CC2OC(=O)c2ccc(Cl)cc2)c1 (centres undefined) is entered as inconclusive: 126 µM [activator, single point]
